In patent US20230374090A1 (SURROZEN OPERATING, published 2023):
No constants are given. Whether binding was seen depends on the method and setting. Some binding calls cover weakened binding; strength is not graded here.

Target: T1, human ASGR1 (human, UniProt P07306 62-291, limits assumed)
T1 construct: also called asialoglycoprotein receptor 1; hASGR1
T1 sequence (looked up): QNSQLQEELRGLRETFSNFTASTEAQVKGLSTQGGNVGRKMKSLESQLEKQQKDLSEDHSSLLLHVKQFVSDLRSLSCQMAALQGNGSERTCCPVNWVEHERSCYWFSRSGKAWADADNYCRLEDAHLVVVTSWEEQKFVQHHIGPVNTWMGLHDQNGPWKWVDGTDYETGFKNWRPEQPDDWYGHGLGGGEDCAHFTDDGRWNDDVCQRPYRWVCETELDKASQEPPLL
Assay: kinetic binding to human ASGR1, IgG1 format

B1: 8M24 humanized L1H1 (antibody, V domains shown)
VH: EVQLVQSGAEVKKPGSSVKVSCKASGYTFTNYGINWVRQAPGQGLEWMGEIFPRSDNTFYAQKFQGRVTITADKSTSTAYMELSSLRSEDTAVYYCARKGRDYGTSHYFDYWGQGTTVTVSS
VL: DIQMTQSPSSLSASVGDRVTITCRISENIYSNLAWYQQKPGKAPKLLIYAAINLADGVPSRFSGSGSGTDFTLTISSLQPEDFATYYCQHFWGTPFTFGQGTKLEIK
notes: also called 8M24 humanized 1
binding: binds
